Results published in article PMC11431649.
Results are given in words; binding and its absence hold for the method and conditions named.

Biological target: recombinant human CD4 protein (extracellular domain) (human) (UniProt P01730)
Experiment: SPR; Biacore T200; hCD4 immobilised on a CM7 chip (20–27 kRU) by amine coupling; unlabeled peptides in two-fold dilutions from 100 µM; 10 mM HEPES pH 7.5, 150 mM NaCl, 0.05% Tween 20, with or without 1% DMSO; 15 °C; a reference protein under the same conditions for specificity; both purified

Binder: SWTVWRS [unlabeled synthetic peptide P16 (SWTVWRS)]
- binding: no binding (tested: 100 µM)

Binder: WHWPLTV [unlabeled synthetic peptide P18 (WHWPLTV)]
- binding: no binding (tested: 100 µM)
